{"source": "paper PMC6857042", "key": {"[1]": {"target": "T1, HA-tagged CACYBP N-terminus mutant (CACYBP-NT) (human) (UniProt Q9HB71)", "T1 sequence": "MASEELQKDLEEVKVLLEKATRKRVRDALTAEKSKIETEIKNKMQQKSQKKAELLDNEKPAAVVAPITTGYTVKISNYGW", "test": "co-IP; anti-HA agarose on lysates of 293T cells co-transfected with Flag- and HA-tagged proteins; NETN buffer; western blotting"}, "[2]": {"target": "HA-tagged CACYBP (human) (UniProt Q9HB71)", "test": "co-IP; anti-HA agarose on lysates of 293T cells co-transfected with Flag- and HA-tagged proteins; NETN buffer; western blotting"}, "[3]": {"target": "HA-tagged CACYBP C-terminus mutant (CACYBP-CT) (human) (UniProt Q9HB71)", "test": "co-IP; anti-HA agarose on lysates of 293T cells co-transfected with Flag- and HA-tagged proteins; NETN buffer; western blotting"}, "[4]": {"target": "endogenous CACYBP (Huh7) (human (endogenous in Huh7)) (UniProt Q9HB71)", "test": "co-IP; endogenous proteins, Huh7 cell extract, anti-CACYBP antibody, rabbit normal IgG as control; NETN buffer; western blotting with anti-CACYBP or anti-RNF41"}}, "note": "No constants are given. Whether binding was seen depends on the method and setting. Binding seen in cells or lysates may run through a third protein. Some results given as binding are weak or reduced against the parent protein; the word gives no strength. For some of these results: Tags and fused reporters may be left off the sequences shown."}
{"binder": "Flag-tagged RNF41 (RING finger protein 41) (protein, UniProt Q9H4P4 1-317) MGYDVTRFQGDVDEDLICPICSGVLEEPVQAPHCEHAFCNACITQWFSQQQTCPVDRSVVTVAHLRPVPRIMRNMLSKLQIACDNAVFGCSAVVRLDNLMSHLSDCEHNPKRPVTCEQGCGLEMPKDELPNHNCIKHLRSVVQQQQTRIAELEKTSAEHKHQLAEQKRDIQLLKAYMRAIRSVNPNLQNLEETIEYNEILEWVNSLQPARVTRWGGMISTPDAVLQAVIKRSLVESGCPASIVNELIENAHERSWPQGLATLETRQMNRRYYENYVAKRIPGKQAVVVMACENQHMGDDMVQEPGLVMIFAHGVEEI", "values": [{"measurement": "binding", "setting": "[1]", "result": "no binding"}, {"measurement": "binding", "setting": "[2]", "result": "binds"}, {"measurement": "binding", "setting": "[3]", "result": "no binding"}]}
{"binder": "endogenous RNF41 (Huh7) (protein, UniProt Q9H4P4 1-317) MGYDVTRFQGDVDEDLICPICSGVLEEPVQAPHCEHAFCNACITQWFSQQQTCPVDRSVVTVAHLRPVPRIMRNMLSKLQIACDNAVFGCSAVVRLDNLMSHLSDCEHNPKRPVTCEQGCGLEMPKDELPNHNCIKHLRSVVQQQQTRIAELEKTSAEHKHQLAEQKRDIQLLKAYMRAIRSVNPNLQNLEETIEYNEILEWVNSLQPARVTRWGGMISTPDAVLQAVIKRSLVESGCPASIVNELIENAHERSWPQGLATLETRQMNRRYYENYVAKRIPGKQAVVVMACENQHMGDDMVQEPGLVMIFAHGVEEI", "values": [{"measurement": "binding", "setting": "[4]", "result": "binds"}]}
